Paper PMC10269899
These are yes or no findings as the source states them, for the method shown. Binding seen in cells or lysates may run through a third protein. Here binding means that the protein was enriched with, or labelled near, the bait; the list need not be complete.

B1: 50S ribosomal protein L35 (protein, UniProt A4VVU6 1-66)
chain: MPKQKTHRASAKRFKRTGSGGLKRFRAYTSHRFHGKTKKQRRHLRKAGMVHAGDFKRIKSMLTGLK
B2: Cytidylate kinase (protein, UniProt A4VVU8 1-225)
chain: MKSIQIAIDGPASSGKSTVAKIIAKNLGYTYLDTGAMYRSATYLALTNGIEVTDQNRIVDLLAQYPIRFGRDENGQQLVFVGDEDVTLPIRDNQVTNNVSAVAALPLVREELVRLQQDIAQAGGIVMDGRDIGTVVLPQAELKIFLVASVEERALRRFKENTERGIETDLESLKEEIAARDYKDSNREVSPLKAADDAITFDTTGVSIEGVVKFISEKAKEILDR
B3: UDP-N-acetylmuramoyl-L-alanyl-D-glutamate-L-lysine ligase (protein, UniProt A4VU28 1-481)
chain: MITIERVLEILKADANFRHIKQNDQTDSTWTDVQFDALSYDSRTVSPMTLFFAKGLAFKKEFLEKAIEAGLAFYVSEINYEVGIPAIIVHDIKQAMSLIAMEFHGHPQKQLKLLAFTGTKGKTTAAYFAFNILKQSKKPAMLSTMNTTLDGKTFFKSTLTTPESLDLFAMMAEAVKNGMTHLIMEVSSQAYLVKRVYGLTFDVGVFLNISPDHIGPIEHPTFEDYFYHKRLLMDNSRAVIVNAGMDHFEVVKEQVSSKDHDFYGPTSENQISQSAGFDFTATGKLAGHYDIQLIGGFNQENAIAAGLACLRLGASLEDIHTGIAQTNVPGRMEVLTQQNGAKVFVDYAHNGDSVKKLIDVVLEHQTGKVFLILGAPGNKGESRRKDFGLLLNDYPQIEVILTADDPNREDPAAIAEQIRAHMTRTSNFILDREEAIRTAMSQTSSPKDAVIIAGKGADAYQIVNGEKAAYDGDLEVAKQYL

molecular target: DivIVA (cell division initiation protein) (Streptococcus suis (endogenous in strain SC-19)); test: affinity purification with mass spectrometry; anti-DivIVA mouse serum with protein A and protein G on lysate of S. suis SC-19 cells cross-linked with 0.1% paraformaldehyde; control: lysate of the divIVA deletion strain; wash 50 mM Tris-HCl, 150 mM NaCl, 1% Nonidet P-40, 0.05% sodium deoxycholate; Q Exactive Plus, MaxQuant

binding, binds:
B1
B2
MRVNITLEHKESGERLYLTSKNKRNTPDRLQLKKYSPKLRKHVIFTEVK (peptide, UniProt A4VT05 1-49) [50S ribosomal protein L33]
B3
